Results deposited as PubChem BioAssay AID686943 (Drosophila RNAi Screening Center, 2013)
The screen tested about 23,000 reagents; shown is an unselected part of those with a known target gene and a result. 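Extra replicates exist only for a retested subset of genes; insulin dose and duration not given; both raised and lowered dpERK matter.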 A plus sign joins genes that one reagent is predicted to hit. Not given: the amount of reagent, the time to read-out.

Test: 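Fly genes whose loss alters ERK activation after insulin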 (primary screen)
System: Drosophila S2R+ haemocyte-like cells expressing YFP-tagged ERK (Rolled)
Knock-down reagent: long dsRNA against Drosophila genes
Challenge: insulin stimulation versus unstimulated cells; dose and duration not given
Measured: 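Antibody staining for doubly phosphorylated ERK divided by ERK-YFP signal, as plate z-scores, in insulin-treated and untreated cells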
Direction: replicate 1, z-score of dpERK with insulin and replicate 2, z-score of dpERK with insulin: higher = more active ERK per ERK-YFP after insulin; replicate 1, z-score of dpERK under basal conditions: higher = more basal active ERK per ERK-YFP; replicate 1, z-score of ERK-YFP with insulin: higher = more YFP-tagged ERK signal

The first 2 records, to show the layout:
replicate 1, z-score of dpERK with insulin | replicate 2, z-score of dpERK with insulin | replicate 1, z-score of dpERK under basal conditions | replicate 1, z-score of ERK-YFP with insulin | Target gene | dsRNA
-0.81 | -0.24 | -0.02 | -0.17 | CG14195 | DRSC19550
-0.36 | 0.09 | -0.76 | -0.2 | pch2 (pachytene checkpoint 2) | DRSC14368

Main list, repeating the preview:
replicate 1, z-score of dpERK with insulin | replicate 2, z-score of dpERK with insulin | replicate 1, z-score of dpERK under basal conditions | replicate 1, z-score of ERK-YFP with insulin | Target gene | dsRNA
-0.81 | -0.24 | -0.02 | -0.17 | CG14195 | DRSC19550
-0.36 | 0.09 | -0.76 | -0.2 | pch2 (pachytene checkpoint 2) | DRSC14368
0.3 | 0.27 | 0.59 | 0.28 | GstD6 (Glutathione S transferase D6) | DRSC16687
-0.61 | -0.36 | 0.68 | 1.02 | CG7536 | DRSC20050
-0.41 | -0.09 | -1.04 | 0.38 | Coq7 + shf | DRSC18448
-0.98 | -0.78 | 0.03 | 0.51 | CG17272 | DRSC15211
0.46 | -0.93 | -0.28 | 0.04 | CG13837 | DRSC14687
-0.33 | -0.17 | 0.47 | 0.55 | pho (pleiohomeotic) | DRSC17219
-0.99 | -0.38 | 2.1 | -0.29 | CG34273 | DRSC13041
-0.67 | -0.23 | -0.32 | 0.58 | moon (moonshiner) | DRSC19497
0.22 | 0.38 | -0.23 | 0.11 | kmg (kumgang) | DRSC02829
1.44 | 0.82 | 1.42 | -0.49 | CG16826 | DRSC02527
0.32 | -0.81 | -0.2 | 0.32 | CG42580 | DRSC20397
0.79 | -0.95 | 0.46 | 0.86 | Vha14-2 (Vacuolar H[+] ATPase 14kD subunit 2) | DRSC12145
0.14 | 0.15 | -0.21 | 0.01 | CheA84a (Chemosensory protein A 84a) | DRSC12669
1.02 | -0.08 | -0.79 | -0.17 | Skp2 + CG14645 | DRSC12231
-0.14 | -0.16 | 0.67 | -0.57 | 128up (upstream of RpIII128) | DRSC05027
0.51 | 0.24 | 1.09 | 0.33 | betaGlu (beta glucuronidase) | DRSC15419
0.69 | 0.64 | -0.61 | -1.57 | CR43142 (pseudo) | DRSC00962
-0.23 | 0.23 | -0.18 | 0.68 | CG4332 | DRSC19890
0.15 | -0.02 | 0.56 | 0.14 | Sk2 (Sphingosine kinase 2) | DRSC08556
0.15 | -0.18 | -1.48 | 1.57 | CG11791 | DRSC14391
0.36 | -1.2 | 0.06 | 0.14 | Hsp110 (Heat shock protein 110) | DRSC11186
